Some of the results follow. Most values come without repeats; read them as rough.

This experiment concerns M229R (matched melanoma line resistant to BRAF inhibitors). The experiment in a line: reduction in cell viability relative to untreated/vehicle; higher = more growth inhibition. As to conditions: 200 nM; 72 h.
As to `Nc1ccccc1NC(=O)c1ccc(CNc2nccc(-c3cccnc3)n2)cc1` [Mocetinostat], the “reduction in cell viability” value amounted to 14.7%.

`O=C1c2c(O)cc(O)cc2OC(c2ccc(O)c(O)c2)C1O` (centres undefined) [Taxifolin]: the “reduction in cell viability” value was less than 0%.

As to `CS(=O)(=O)Oc1ccc2c(NC(N)=O)c(C(=O)c3ccc(Cl)cc3Cl)oc2c1` [Lirimilast], the “reduction in cell viability” value is less than 0%.

Turning to `CC1CNc2c(cccc2S(=O)(=O)N[C@@H](CCCNC(=N)N)C(=O)N2CC[C@@H](C)C[C@@H]2C(=O)O)C1` (some centres undefined) [Argatroban], the “reduction in cell viability” value was less than 0%.

Turning to `NC(=O)c1ncn([C@@H]2O[C@H](CO)[C@@H](O)[C@H]2O)n1` [Ribavirin], the “reduction in cell viability” value is less than 0%.

Turning to `CC(C)C[C@H](NC(=O)[C@@H](O)[C@H](N)Cc1ccccc1)C(=O)O` [Ubenimex], the “reduction in cell viability” value was less than 0%.

`O=C(NCc1ccccc1)[C@H](Cc1ccccc1)NC(=O)[C@H]1O[C@@H]1C(=O)NCCc1ccc(O)cc1`: the “reduction in cell viability” value was less than 0%.

With `Cc1c(C(=O)NN2CCCCC2)nn(-c2ccc(Cl)cc2Cl)c1-c1ccc(Cl)cc1` [Rimonabant], the “reduction in cell viability” value was less than 0%.

Regarding `CC1(C)NC(=O)N(c2ccc([N+](=O)[O-])c(C(F)(F)F)c2)C1=O` [Nilutamide], the “reduction in cell viability” value was less than 0%.

For `Cc1csc(-c2nnc(Nc3ccc(Oc4ncccc4-c4ccnc(N)n4)cc3)c3ccccc23)c1`, the “reduction in cell viability” value was less than 0%.

In the case of `c1cc(-c2sc(-c3ccncc3)c(-c3ccncc3)c2-c2ccncc2)ccn1`, the “reduction in cell viability” value is less than 0%.

For the compound `c1ccc(CNc2nc(NCc3ccccc3)c3ccccc3n2)cc1`, the “reduction in cell viability” value was less than 0%.

For `O=C1NC(=O)/C(=C/c2ccc(-c3ccc(F)cc3O)o2)S1`, the “reduction in cell viability” value is less than 0%.

Consider `CC(=O)OCC(=O)[C@@]12N=C(C)O[C@@H]1C[C@H]1[C@@H]3CCC4=CC(=O)C=C[C@]4(C)[C@H]3[C@@H](O)C[C@@]12C` [Deflazacort], for which the “reduction in cell viability” value was less than 0%.
